Data as given in the supplement of paper PMC10735217.
Structures can show the parent of a compound that is named as a salt. The list shows a part of the results. Single values are uncertain here, since repeats match poorly.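 In a drug-repurposing library screen, luminescence reads luciferase driven by eight TEAD-binding elements, stably integrated into human kidney-derived cells. Compounds scoring over five robust Z scores above the plate mean are called hits.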

System: HEK293A TEAD-LUC reporter
Test: TEAD-luciferase reporter activity (YAP activation), robust Z score vs plate; higher = stronger YAP/TEAD activation
Settings: 24 h

SMILES | TEAD-luciferase reporter activity (compound concentration: 200 nM) | TEAD-luciferase reporter activity (compound concentration: 2 uM) | TEAD-luciferase reporter activity (compound concentration: 10 uM)
CN(C)CCCCNc1c2ccccc2nc2cccc([N+](=O)[O-])c12 | inactive: 0.0385 | inactive: 0.501 | inactive: 0.697
CCn1c(-c2ccc(OC)c(OC)c2)c/c(=N\c2c(C)cc(C)cc2C)n(C)c1=O | inactive: -0.148 | inactive: -0.272 | inactive: -1.74
N=C(N)NCCC[C@H](NC(=O)[C@@H]1CSSC[C@H](NC(=O)[C@H](Cc2ccc3ccccc3c2)NC(=O)[C@H](CCCNC(=N)N)NC(=O)[C@H](CCCNC(=N)N)NC(=O)c2ccc(F)cc2)C(=O)N[C@@H](Cc2ccc(O)cc2)C(=O)N[C@@H](CCCNC(N)=O)C(=O)N[C@@H](CCCCN)C(=O)N[C@@H](CCCCN)C(=O)N2CCC[C@H]2C(=O)N[C@@H](Cc2ccc(O)cc2)C(=O)N[C@@H](CCCNC(=N)N)C(=O)N[C@@H](CCCNC(N)=O)C(=O)N1)C(N)=O | inactive: -0.516 | inactive: 1.55 | inactive: 0.325
CCCCC1C(=O)NN(c2ccccc2)C1=O (configuration not stated) | inactive: -1.14 | inactive: -1.27 | inactive: 1.61
CCCC1(C2=NCCN2)Cc2cccc3c2N1CC3 (configuration not stated) | inactive: 0.0774 | inactive: -1.62 | inactive: -1.67
CC1CC(OC(=O)C(O)c2ccccc2)CC(C)(C)N1C (configuration not stated) | inactive: 1.58 | inactive: -0.529 | inactive: -0.731
CN(C)CCCO[C@@H]1[C@H]2OC(C)(C)O[C@H]2O[C@@H]1[C@H](O)CO [Amiprilose] | inactive: -0.887 | inactive: -0.599 | inactive: -1.81
CCC[C@@H]1O[C@@H]2C[C@H]3[C@@H]4C[C@H](F)C5=CC(=O)CC[C@]5(C)[C@@]4(F)[C@@H](O)C[C@]3(C)[C@]2(C(=O)S[C@@H]2CCOC2=O)O1 | inactive: -1.03 | inactive: -0.055 | inactive: 3.2
Cc1scc2c1N(C(=O)CN1CCN(C)CC1)c1ccccc1NC2=O [Telenzepine hydrochloride] | inactive: -1.45 | inactive: -0.713 | inactive: 0.769
CN[C@@H](C)C(=O)N[C@H](C(=O)N1CCC[C@H]1C(=O)Nc1sc(-c2ncco2)nc1-c1ccccc1)C1CCCCC1 | inactive: 0.864 | active: 6.2 | inactive: -0.62
CCCN1CC[C@H]2c3c(cccc3C(N)=O)CC[C@H]21 | inactive: 0.495 | inactive: -1.14 | inactive: -1.68
O=C(CCc1ccc(O)cc1)c1c(O)cc(O)cc1O [Phloretin] | inactive: -0.724 | inactive: -2.55 | inactive: -1.99
CCOC(=O)C(=Cc1ncc([N+](=O)[O-])n1C)C(C)=O [Propenidazole] | inactive: -1.74 | inactive: -1.4 | inactive: -0.524
Cc1ccc(Cl)c(Nc2ccccc2C(=O)O)c1Cl [meclofenamate sodium] |  | inactive: -0.831 | 
Cc1ccc(Cl)c(Nc2ccccc2C(=O)O)c1Cl [Meclofenamate sodium] | inactive: -1.78 |  | inactive: 2.91
COc1cc(/C=C/C(=O)O[C@H]2CC[C@]34CC35CC[C@]3(C)[C@@H]([C@H](C)CCC=C(C)C)CC[C@@]3(C)C5CCC4C2(C)C)ccc1O (some centres not stated) | inactive: 0.541 | inactive: 2.19 | inactive: 0.0531

SMILES | TEAD-luciferase reporter activity (compound concentration: 200 nM) | TEAD-luciferase reporter activity (compound concentration: 2 uM) | TEAD-luciferase reporter activity (compound concentration: 10 uM)
C[C@@H]1OC(=O)N[C@@H]1C(=O)N[C@@H](Cc1cscn1)C(=O)N1CCC[C@H]1C [Rovatirelin] | inactive: -0.761 | inactive: -0.688 | inactive: 0.109
CCCNC(C)C(=O)Nc1c(C)csc1C(=O)OC (configuration not stated) [Articaine hydrochloride] | inactive: -1.54 | inactive: 1.24 | inactive: 0.628
C[C@@H]1C[C@H]2[C@@H]3CCC4=CC(=O)C=C[C@]4(C)[C@@]3(Cl)[C@@H](O)C[C@]2(C)[C@@]1(O)C(=O)CO [beclometasone, Alza] | inactive: 0.133 | inactive: 0.167 | inactive: -0.165
Cc1ncc(CO)c(CO)c1O [Pyridoxine] | inactive: -0.957 | inactive: -1.3 | inactive: 2.81
COc1ccc2c(c1)C(/C=C/C(C)=C/C(=O)O)=CC(C)(C)CO2 | inactive: -1.22 | inactive: 0.0481 | inactive: -0.057
Cc1cc(C(=O)Nc2cc(Nc3ccc4c(/C=C/c5ccccn5)n[nH]c4c3)ccc2F)n(C)n1 | inactive: -0.502 | inactive: -1.33 | inactive: 1.35
CC(C)OCCn1c(=S)[nH]c(=O)c2[nH]ccc21 | inactive: -1.11 | inactive: 0.965 | inactive: 0.417
CCn1ncnc1COc1nn2c(-c3ccccc3F)nnc2cc1C(C)(C)C | inactive: 0.0269 | inactive: 0.264 | inactive: -0.78
CC1CN(c2cc3c(cc2F)c(=O)c(C(=O)O)cn3C(C)(C)C)CCN1 (configuration not stated) | inactive: 1.78 | inactive: 0.188 | inactive: -1.92
COCCCNC(=O)c1c[nH]c2ncccc12 | active: 5.75 |  | inactive: 0.739
CC1(C)CN(CC(=O)N2CCCC2)[C@H](C(=O)Nc2cc(Cl)cc3c2[nH]c2cnccc23)CO1 | inactive: -1.16 | inactive: -0.0157 | inactive: 1.54
CC1(CS(=O)(=O)N2CCC(c3ccc(F)cc3)CC2)NC(=O)NC1=O (configuration not stated) | inactive: 0.932 | inactive: -0.627 | inactive: -0.148
CCCC(=O)NCc1ccc(C(F)(F)F)cc1 | inactive: 1.1 | inactive: 1.3 | inactive: -0.251
Cc1cc(Nc2ncc(Cl)c(Nc3ccccc3S(=O)(=O)C(C)C)n2)c(OC(C)C)cc1C1CCNCC1 [Ceritinib] | inactive: -1.37 | inactive: 0.318 | inactive: -0.686
C[C@@]1(O)[C@H](O)[C@@H](CO)O[C@H]1n1ccc(N)nc1=O | inactive: 0.612 | inactive: -0.758 | inactive: 0.402
O=c1ncn2nc(Sc3ccc(F)cc3F)ccc2c1-c1c(Cl)cccc1Cl | inactive: 0.165 | inactive: -1.85 | inactive: -1.08

Two records picked at random from those above, as already listed:
SMILES | TEAD-luciferase reporter activity (compound concentration: 200 nM) | TEAD-luciferase reporter activity (compound concentration: 2 uM) | TEAD-luciferase reporter activity (compound concentration: 10 uM)
CCCNC(C)C(=O)Nc1c(C)csc1C(=O)OC (configuration not stated) [Articaine hydrochloride] | inactive: -1.54 | inactive: 1.24 | inactive: 0.628
CN(C)CCCCNc1c2ccccc2nc2cccc([N+](=O)[O-])c12 | inactive: 0.0385 | inactive: 0.501 | inactive: 0.697
